Assay results reported in PubChem BioAssay AID493014 (National Center for Advancing Translational Sciences (NCATS), 2011).
The other results are listed elsewhere or left out. Further columns of the screen follow, without active or inactive calls. The list favours compounds with an active or inconclusive main result. Words in brackets tell the shape of the fitted curve; partial curves, single points and poor fits give uncertain potencies.

Assay: qHTS Assay to Find Inhibitors of Chronic Active B-Cell Receptor Signaling
Details: ABC-DLBCL IkBa-CBG/CBR reporter, luminescence ratio (green luciferase fused to IkBa over red control in TMD8 lymphoma cells), 4 h
Procedure, shortened: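 TMD8 human ABC-DLBCL cells with doxycycline-inducible IκBα–green luciferase fusion and unfused red luciferase, in 0.5% FBS medium; compounds up to 46 uM, 4 h at 37C. Green/red luminescence ratio, filter-overlap corrected, fitted to concentration-response curves.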

[1] = measured here: CBR red luminescence, cell number
[2] = measured here: IkBa-CBG green luminescence

Compound | AC50 [1] | AC50 [2]
O=c1[nH][nH]c(=S)n1-c1ccccc1C(F)(F)F | 35.5 µM [rising, single point] | –
O=C(COc1ccccc1)NC1CCN(Cc2ccccc2)CC1 | 1.3 µM [falling, partial curve, poor fit] | –
COc1ccc(N=Cc2c(O)[nH]c3ccccc23)cc1 | 22.4 µM [falling, single point] | –
COc1ccc(CCNC(=O)c2cc(S(=O)(=O)N(C)c3ccccc3)ccc2Cl)cc1 | 29.1 µM [falling, single point] | –
CC(=O)c1ccccc1NC(=O)CSc1nnc2ccccn12 | 6.51 µM [falling, partial curve, poor fit] | –
COc1cc(NC(=S)NC(=O)c2ccccc2C)ccc1NC(=O)c1cccs1 | 3.26 µM [falling, partial curve, poor fit] | –
COc1ccc(-c2nn(-c3ccccc3)cc2CN2CCCO2)c(F)c1 | 0.112 µM [rising, full curve, poor fit] | –
Cc1ccsc1C(=O)OCc1nc2ccsc2c(=O)[nH]1 | 18.4 µM [falling, single point] | –
Cc1cccc(/C=N/NC(=O)c2ccc(F)cc2)n1 | 22.4 µM [falling, single point] | –
O=C(O)CCCC(=O)Nc1ccccc1Oc1ccccc1 | 12.6 µM [falling, partial curve, poor fit] | –
OC(COc1ccc2c(c1)OCO2)CN1CCN(c2ccccc2)CC1 (configuration not stated) | 1.26 µM [falling, full curve, poor fit] | –
Cc1cc(OCC(=O)N(C)C2CCCCC2)cc(C)c1Cl | 2.24 µM [rising, full curve, poor fit] | –
Cc1c(NS(=O)(=O)c2ccc3c(c2)n(C)c(=O)n3C)c(=O)n(-c2ccccc2)n1C | 22.4 µM [rising, single point] | –
COc1ccc(/C=N/NC(=O)c2cccc(NC(=O)c3ccc(Cl)cc3)c2)c(OC)c1 | 16.4 µM [falling, partial curve, poor fit] | –
CC/C(C)=N\Nc1nc(-c2cc3cc(OC)ccc3oc2=O)cs1 | – | 35.5 µM [rising, partial curve, poor fit]
CC(=O)Nc1ccc(NC(=O)CSc2nnc3ccc(-c4ccccn4)nn23)cc1 | 18.4 µM [falling, partial curve, poor fit] | –
COc1cc2ccccc2cc1C(=O)Nc1ccc(O)cc1 | 4.47 µM [falling, partial curve, poor fit] | –
O=C(CN1CCc2ccccc21)NN1CC(=O)N(c2ccc(Cl)cc2)CC1=O | 0.398 µM [rising, full curve, poor fit] | –
CCC1COCCS(=O)(=O)N1Cc1ccc(Cl)cc1 (configuration not stated) | 25.1 µM [falling, single point] | –
Cc1ccc(C(C2=C(O)CC(C)(C)CC2=O)C2C(=O)CC(C)(C)CC2=O)s1 (configuration not stated) | 31.6 µM [rising, single point] | –
O=C(Nc1nc(-c2ccc(-c3ccccc3)cc2)cs1)C1=COCCO1 | 0.184 µM [falling, full curve] | –

One compound at a time, from the list above. Order of values: AC50 [1] | AC50 [2]
Cc1ccsc1C(=O)OCc1nc2ccsc2c(=O)[nH]1 reads 18.4 µM [falling, single point] | –
O=C(CN1CCc2ccccc21)NN1CC(=O)N(c2ccc(Cl)cc2)CC1=O reads 0.398 µM [rising, full curve, poor fit] | –

Next structures follow:

Compound | AC50 [1] | AC50 [2]
CCCn1nc(NC(=O)c2ccccn2)c2cc3cc(C)ccc3nc21 | 2.91 µM [falling, full curve] | –
N#CC1=C(N)N(c2ccccc2)C2=C(C(=O)CCC2)C1c1ccccc1 (configuration not stated) | 4.11 µM [falling, full curve] | –
CCCCn1c(=N)n(CC(O)COc2ccccc2)c2ccccc21 (configuration not stated) | 22.4 µM [falling, single point] | –
CNc1nc(Sc2ccccc2)cc(C(F)(F)F)n1 | 17.8 µM [rising, partial curve, poor fit] | –
Nn1c(SCC(=O)NCC2CCCO2)nnc1-c1ccco1 (configuration not stated) | 0.146 µM [rising, full curve, poor fit] | –
Cc1ccc(NC(=S)NC(=O)C2CCCCC2)c(Br)c1 | 11.6 µM [rising, partial curve, poor fit] | –
CO/N=C(\C(=O)O)c1csc(NN=C(C)C)n1 | 6.31 µM [rising, single point] | –
O=C(O)CCCC(=O)Nc1nc(-c2ccccc2)cs1 | 0.794 µM [falling, full curve] | –
C#CCOCCOCCOCCNc1nc(N2CCN(C(=O)CCCCCCCCCCNC(=O)Cn3cc(CCCCCN)nn3)CC2)nc(N2CCN(C(=O)CCCCCCCCCCNC(=O)[C@H]([C@@H](C)CC)n3cc(CCCCN=C(N)N)nn3)CC2)n1 | 2.06 µM [rising, partial curve] | –
COc1ccc(OC)c2[nH]c(=O)c(CCNC(=S)NC(C)(C)C)cc12 | 5.62 µM [rising, single point] | –
O=C(N/N=C/c1ccoc1)c1ccccc1Br | 8.91 µM [falling, partial curve] | –
Cc1noc(C)c1CSCC(=O)Nc1nc2c(F)cc(F)cc2s1 | 16.4 µM [falling, partial curve] | –
CN(Cc1ccc2nonc2c1)Cc1nc(CC2CC2)no1 | 20 µM [falling, single point] | –
COc1cc(/C=C2\SC(=S)N(CCCCC(=O)O)C2=O)ccc1OS(=O)(=O)c1ccc(C)cc1 | 20.6 µM [falling, single point] | 10.3 µM [rising, partial curve, poor fit]
O=C(COc1ccc(Cl)cc1Cl)N1CCNC1=O | 6.51 µM [rising, single point] | –
Clc1ccc(-c2nnc(-c3ccccc3)c(N3CCSCC3)n2)cc1 | 1.78 µM [falling, full curve] | –
O=C(OCCCCN1C(=O)c2ccccc2C1=O)c1ccc(S(=O)(=O)N2CCCC2)cc1 | 5.01 µM [falling, full curve, poor fit] | –
C=CCC(=O)OCC(=O)Nc1ccc(Oc2ccccc2)cc1 | 11.2 µM [falling, partial curve, poor fit] | –
COCCn1c(C)cc(C2=NNC(=NC3CC3)SC2)c1C | 3.16 µM [rising, full curve, poor fit] | –
COc1cc(OC)c(C2=NOC(C(=O)Nc3c(C)n(C)n(-c4ccccc4)c3=O)C2)cc1Cl (configuration not stated) | 10 µM [falling, partial curve, poor fit] | –
